Variants at the background level are over-represented here.
Experiments:
biotinyl-Trp-oxazolone = test: self-aminoacylation, catalytic enhancement (BWO) (fold over background); higher = more active; k-Seq, kA / k0A0; sequences stand for … in GGGAAUGGAUCCACAUCUACGAAUUC…UUCACUGCAGACUUGACGAAGCUG
In short: (§1)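 Mutagenized RNA pools (0.43 μM; 21-nt variable region) were treated with 2–1250 μM of each biotinyl-aminoacyl-oxazolone. Conditions were 50 μL HEPES/NaCl/KCl/MgCl2/CaCl2 buffer, 5% acetonitrile, pH 6.9–7.0, room temperature, 90 minutes. Catalytic enhancement, the median kA relative to the uncatalyzed rate, was derived from streptavidin capture, qPCR and Illumina sequencing.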

biotinyl-Leu-oxazolone = test: self-aminoacylation, catalytic enhancement (BLO) (fold over background); higher = more active; k-Seq, kA / k0A0; sequences stand for … in GGGAAUGGAUCCACAUCUACGAAUUC…UUCACUGCAGACUUGACGAAGCUG
In short: as §1

biotinyl-Val-oxazolone = test: self-aminoacylation, catalytic enhancement (BVO) (fold over background); higher = more active; k-Seq, kA / k0A0; sequences stand for … in GGGAAUGGAUCCACAUCUACGAAUUC…UUCACUGCAGACUUGACGAAGCUG
In short: as §1

biotinyl-Ile-oxazolone = test: self-aminoacylation, catalytic enhancement (BIO) (fold over background); higher = more active; k-Seq, kA / k0A0; sequences stand for … in GGGAAUGGAUCCACAUCUACGAAUUC…UUCACUGCAGACUUGACGAAGCUG
In short: as §1

biotinyl-Met-oxazolone = test: self-aminoacylation, catalytic enhancement (BMO) (fold over background); higher = more active; k-Seq, kA / k0A0; sequences stand for … in GGGAAUGGAUCCACAUCUACGAAUUC…UUCACUGCAGACUUGACGAAGCUG
In short: as §1

biotinyl-Phe-oxazolone = test: self-aminoacylation, catalytic enhancement (BFO) (fold over background); higher = more active; k-Seq, kA / k0A0; sequences stand for … in GGGAAUGGAUCCACAUCUACGAAUUC…UUCACUGCAGACUUGACGAAGCUG
In short: as §1

Row | Sequence | self-aminoacylation (biotinyl-Trp-oxazolone) | self-aminoacylation (biotinyl-Leu-oxazolone) | self-aminoacylation (biotinyl-Val-oxazolone) | self-aminoacylation (biotinyl-Ile-oxazolone) | self-aminoacylation (biotinyl-Met-oxazolone) | self-aminoacylation (biotinyl-Phe-oxazolone)
1 | CUACUUCAAACACUCGGUUUG [Fam1A.1 aminoacylation ribozyme variant] | 0.897 | 0.88 | 1.17 | 1.18 | 0.897 | 1.22
2 | CUACUUCAAACACUCGUUCUG [Fam1A.1 aminoacylation ribozyme variant] | 0.444 | 0.492 | 0.635 | 0.595 | 0.499 | 0.429
3 | CUACUUCAAACAGACGGUCUG [Fam1A.1 aminoacylation ribozyme variant] | 0.435 | 0.628 | 0.66 | 0.754 | 0.627 | 1.06
4 | CUACUUCAAACAGCCGGUCUG [Fam1A.1 aminoacylation ribozyme variant] | 0.804 | 1.05 | 1.07 | 1.06 | 1.15 | 0.468
5 | CUACUUCAAACAGUCAGUCUG [Fam1A.1 aminoacylation ribozyme variant] | 0.564 | 0.658 | 0.711 | 0.701 | 0.571 | 0.561
6 | CUACUUCAAACAGUCCGUCUG [Fam1A.1 aminoacylation ribozyme variant] | 0.486 | 0.652 | 0.68 | 0.872 | 0.698 | 0.875
7 | CUACUUCAAACAGUCGAUCUG [Fam1A.1 aminoacylation ribozyme variant] | 0.471 | 0.585 | 0.703 | 0.728 | 0.663 | 0.789
8 | CUACUUCAAACAGUCGGGCUG [Fam1A.1 aminoacylation ribozyme variant] | 1.61 | 1.56 | 1.49 | 1.65 | 1.23 | 0.993
9 | CUACUUCAAACAGUCGGUCCG [Fam1A.1 aminoacylation ribozyme variant] | 0.608 | 1.1 | 1.02 | 0.887 | 0.943 | 0.369
10 | CUACUUCAAACCUUCGGUCUG [Fam1A.1 aminoacylation ribozyme variant] | 0.649 | 1.12 | 1.1 | 1.05 | 1.1 | 0.832
11 | CUACUUCAAACGUUCGGUCUG [Fam1A.1 aminoacylation ribozyme variant] | 0.895 | 0.695 | 0.816 | 0.686 | 0.565 | 0.336
12 | CUACUUCAAACUAUCGGUGUG [Fam1A.1 aminoacylation ribozyme variant] | 0.784 | 1.41 | 1.14 | 1.09 | 1.3 | 0.584
13 | CUACUUCAAAUGAUCGGUCUG [Fam1A.1 aminoacylation ribozyme variant] | 1.22 | 0.76 | 1.06 | 0.972 | 0.864 | 1.17
14 | CUACUUCAACCACUCGGUCUG [Fam1A.1 aminoacylation ribozyme variant] | 0.862 | 0.948 | 0.841 | 0.74 | 0.701 | 0.905
15 | CUACUUCAACCCAUCGGUCUG [Fam1A.1 aminoacylation ribozyme variant] | 0.838 | 0.943 | 0.983 | 0.983 | 0.722 | 0.647
16 | CUACUUCACACAAUCAGUCUG [Fam1A.1 aminoacylation ribozyme variant] | 0.65 | 0.595 | 0.799 | 0.729 | 0.626 | 1.2
17 | CUACUUCACACAAUCGGUCGG [Fam1A.1 aminoacylation ribozyme variant] | 1.09 | 1.36 | 0.981 | 1.26 | 1.4 | 0.779
18 | CUACUUCACACAAUCGGUCUC [Fam1A.1 aminoacylation ribozyme variant] | 0.725 | 0.611 | 0.675 | 0.739 | 0.555 | 0.787
19 | CUACUUCACACUAUCGGUCUG [Fam1A.1 aminoacylation ribozyme variant] | 0.49 | 0.713 | 0.857 | 0.733 | 0.588 | 0.94
20 | CUACUUCCAACCAUCGGUCUG [Fam1A.1 aminoacylation ribozyme variant] | 0.433 | 0.813 | 0.789 | 0.736 | 0.765 | 0.682
21 | CUACUUCCAAUAAUCGGUCUG [Fam1A.1 aminoacylation ribozyme variant] | 0.937 | 0.926 | 0.98 | 0.755 | 0.849 | 1.32
22 | CUACUUCGAAAAAUCGGUCUG [Fam1A.1 aminoacylation ribozyme variant] | 0.503 | 0.674 | 0.665 | 0.724 | 0.824 | 0.507
23 | CUACUUCGAACAAUCGCUCUG [Fam1A.1 aminoacylation ribozyme variant] | 0.756 | 0.651 | 0.779 | 0.81 | 0.921 | 1.36
24 | CUACUUCGAACAAUCGGUAUG [Fam1A.1 aminoacylation ribozyme variant] | 0.562 | 0.677 | 0.586 | 0.675 | 0.491 | 0.459
25 | CUACUUCGAAUAAUCGGUCUG [Fam1A.1 aminoacylation ribozyme variant] | 0.44 | 0.702 | 0.636 | 0.624 | 0.684 | 0.513
26 | CUACUUCUAACAAUCGGUAUG [Fam1A.1 aminoacylation ribozyme variant] | 0.428 | 0.529 | 0.533 | 0.584 | 0.537 | 0.695

Row | Sequence | self-aminoacylation (biotinyl-Trp-oxazolone) | self-aminoacylation (biotinyl-Leu-oxazolone) | self-aminoacylation (biotinyl-Val-oxazolone) | self-aminoacylation (biotinyl-Ile-oxazolone) | self-aminoacylation (biotinyl-Met-oxazolone) | self-aminoacylation (biotinyl-Phe-oxazolone)
27 | CUACUUCUAACAAUUGGUCUG [Fam1A.1 aminoacylation ribozyme variant] | 0.367 | 0.719 | 0.705 | 0.777 | 0.633 | 0.669
28 | CUACUUCUACCAAUCGGUCUG [Fam1A.1 aminoacylation ribozyme variant] | 0.637 | 0.684 | 0.692 | 0.719 | 0.69 | 0.773
29 | CUACUUGAAACAAUCAGUCUG [Fam1A.1 aminoacylation ribozyme variant] | 0.451 | 0.683 | 0.809 | 0.748 | 0.65 | 0.584
30 | CUACUUGAAACAAUCGAUCUG [Fam1A.1 aminoacylation ribozyme variant] | 0.515 | 0.734 | 0.811 | 0.811 | 0.732 | 0.528
31 | CUACUUGAAACAAUCGGUCAG [Fam1A.1 aminoacylation ribozyme variant] | 0.487 | 0.681 | 0.641 | 0.701 | 0.588 | 0.509
32 | CUACUUGAAACAAUCGGUCUC [Fam1A.1 aminoacylation ribozyme variant] | 0.561 | 0.657 | 0.688 | 0.789 | 0.827 | 0.658
33 | CUACUUGAAACAAUUGGUCUG [Fam1A.1 aminoacylation ribozyme variant] | 0.892 | 1.03 | 1.1 | 1.17 | 1.31 | 0.632
34 | CUACUUGAAACAGUCGGUCUG [Fam1A.1 aminoacylation ribozyme variant] | 1.08 | 1.26 | 1.2 | 1.09 | 1.14 | 0.659
35 | CUACUUGAAACCAUCGGUCUG [Fam1A.1 aminoacylation ribozyme variant] | 0.929 | 0.736 | 0.981 | 0.986 | 0.916 | 0.91
36 | CUACUUUAAACAAUCGGUCUC [Fam1A.1 aminoacylation ribozyme variant] | 0.649 | 0.905 | 0.809 | 0.819 | 0.719 | 1.09
37 | CUACUUUAAACAAUCGGUCUG [Fam1A.1 aminoacylation ribozyme variant] | 0.917 | 0.717 | 0.789 | 0.819 | 0.827 | 1.34
38 | CUACUUUAAACAAUCGGUCUU [Fam1A.1 aminoacylation ribozyme variant] | 0.6 | 0.738 | 0.885 | 0.888 | 1.09 | 0.805
39 | CUAGUUCAAACCAUCGGUCUG [Fam1A.1 aminoacylation ribozyme variant] | 1.45 | 1.08 | 1.17 | 1.36 | 1.07 | 1.11
40 | CUAUUCCAAACAAUCGGUCUG [Fam1A.1 aminoacylation ribozyme variant] | 0.703 | 0.839 | 0.767 | 0.927 | 0.841 | 0.757
41 | CUAUUUCAAACAAUCGAUCUG [Fam1A.1 aminoacylation ribozyme variant] | 0.483 | 0.469 | 0.573 | 0.662 | 0.57 | 0.873
42 | CUAUUUCAAACGAUCGGUCUG [Fam1A.1 aminoacylation ribozyme variant] | 1.03 | 0.788 | 0.708 | 0.787 | 0.884 | 0.608
43 | CUAUUUUAAACAAUCGGUCUG [Fam1A.1 aminoacylation ribozyme variant] | 0.668 | 0.894 | 0.977 | 0.99 | 1.02 | 0.762
44 | CUCCACUUCAAGCAAUCGGUC [Fam1B.1 aminoacylation ribozyme variant] | 27.6 | 2.07 | 1.45 | 1.37 | 1.27 | 50.4
45 | CUCCUUCAAACAAUCCGUCUG [Fam1A.1 aminoacylation ribozyme variant] | 1.25 | 0.659 | 0.949 | 1.03 | 0.657 | 1.24
46 | CUCCUUCAAACAAUUGGUCUG [Fam1A.1 aminoacylation ribozyme variant] | 0.941 | 0.847 | 0.872 | 0.841 | 0.769 | 1.38
47 | CUGAUUCAAACAAUCGGUCUG [Fam1A.1 aminoacylation ribozyme variant] | 6.12 | 1.14 | 0.828 | 0.947 | 0.923 | 9.61
48 | CUGCUUCAAACAAUGGGUCUG [Fam1A.1 aminoacylation ribozyme variant] | 0.644 | 0.786 | 0.781 | 0.891 | 0.695 | 0.498
49 | CUGCUUUAAACAAUCGGUCUG [Fam1A.1 aminoacylation ribozyme variant] | 1.87 | 0.754 | 0.79 | 0.889 | 0.879 | 2
50 | CUUCACCUAGGUCAUUGGGUG [Fam2.2 aminoacylation ribozyme variant] | 2.35 | 2.25 | 2.22 | 1.98 | 2.36 | 12.3
51 | CUUCUUCAAACAAACGGUCUG [Fam1A.1 aminoacylation ribozyme variant] | 0.746 | 0.822 | 0.764 | 0.865 | 0.739 | 0.905
